According to the supplement of paper PMC10849652:
The other results are listed elsewhere or left out.

The chains behind the UniProt entries cited, without tags or fusion partners. Where a name states a change or a piece, a line headed by the entry shows the natural chain unless it says otherwise.
UniProt Q9UJJ9: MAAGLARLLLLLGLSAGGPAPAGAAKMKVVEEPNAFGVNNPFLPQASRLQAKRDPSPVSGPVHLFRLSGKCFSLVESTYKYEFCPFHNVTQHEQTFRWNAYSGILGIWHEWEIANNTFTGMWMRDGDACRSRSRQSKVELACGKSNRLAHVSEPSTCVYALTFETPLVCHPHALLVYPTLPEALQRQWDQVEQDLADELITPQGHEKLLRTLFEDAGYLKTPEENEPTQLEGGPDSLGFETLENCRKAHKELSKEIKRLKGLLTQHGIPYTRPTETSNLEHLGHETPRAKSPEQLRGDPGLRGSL
UniProt I6L899: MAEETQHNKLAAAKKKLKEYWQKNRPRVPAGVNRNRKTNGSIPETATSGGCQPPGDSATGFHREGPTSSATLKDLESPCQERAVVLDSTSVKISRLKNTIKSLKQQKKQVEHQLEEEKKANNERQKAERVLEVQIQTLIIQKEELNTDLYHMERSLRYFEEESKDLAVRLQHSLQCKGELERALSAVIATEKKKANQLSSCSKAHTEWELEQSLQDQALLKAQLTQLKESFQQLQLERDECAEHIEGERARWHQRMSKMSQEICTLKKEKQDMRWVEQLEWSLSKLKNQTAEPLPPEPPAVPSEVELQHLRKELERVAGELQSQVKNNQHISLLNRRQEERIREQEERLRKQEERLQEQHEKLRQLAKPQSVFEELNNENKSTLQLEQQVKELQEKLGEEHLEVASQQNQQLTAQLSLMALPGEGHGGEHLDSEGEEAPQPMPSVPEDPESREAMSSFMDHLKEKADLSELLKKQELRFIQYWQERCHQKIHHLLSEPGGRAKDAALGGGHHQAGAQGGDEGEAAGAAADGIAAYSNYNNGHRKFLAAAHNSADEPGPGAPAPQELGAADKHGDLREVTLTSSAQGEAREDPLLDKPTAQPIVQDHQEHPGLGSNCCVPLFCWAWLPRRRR
UniProt Q9HCN6: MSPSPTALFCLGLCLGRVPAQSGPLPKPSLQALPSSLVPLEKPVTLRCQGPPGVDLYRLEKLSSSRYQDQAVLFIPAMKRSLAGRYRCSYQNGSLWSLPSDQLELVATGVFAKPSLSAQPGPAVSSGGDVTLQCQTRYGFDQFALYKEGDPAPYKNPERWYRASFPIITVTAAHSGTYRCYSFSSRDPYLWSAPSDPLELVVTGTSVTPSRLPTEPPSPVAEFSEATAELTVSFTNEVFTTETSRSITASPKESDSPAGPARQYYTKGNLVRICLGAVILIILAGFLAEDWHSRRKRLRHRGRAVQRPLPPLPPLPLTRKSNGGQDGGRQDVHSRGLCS
UniProt P43250, whole entry, looked up: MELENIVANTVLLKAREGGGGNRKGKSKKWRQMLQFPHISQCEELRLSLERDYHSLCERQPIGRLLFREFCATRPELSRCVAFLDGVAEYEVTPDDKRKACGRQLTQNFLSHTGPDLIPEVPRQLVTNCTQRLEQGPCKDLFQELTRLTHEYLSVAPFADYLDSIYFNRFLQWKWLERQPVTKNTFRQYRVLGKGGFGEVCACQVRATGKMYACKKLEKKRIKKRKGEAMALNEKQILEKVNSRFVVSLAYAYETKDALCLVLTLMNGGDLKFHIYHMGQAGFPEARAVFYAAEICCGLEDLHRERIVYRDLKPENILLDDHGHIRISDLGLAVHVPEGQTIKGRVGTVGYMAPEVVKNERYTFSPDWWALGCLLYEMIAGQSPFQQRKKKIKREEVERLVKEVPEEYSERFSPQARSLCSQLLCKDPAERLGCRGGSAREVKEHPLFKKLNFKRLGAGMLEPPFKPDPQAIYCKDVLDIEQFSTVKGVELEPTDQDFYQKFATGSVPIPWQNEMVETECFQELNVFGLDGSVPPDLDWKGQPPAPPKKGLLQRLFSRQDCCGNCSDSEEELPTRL
UniProt O75487: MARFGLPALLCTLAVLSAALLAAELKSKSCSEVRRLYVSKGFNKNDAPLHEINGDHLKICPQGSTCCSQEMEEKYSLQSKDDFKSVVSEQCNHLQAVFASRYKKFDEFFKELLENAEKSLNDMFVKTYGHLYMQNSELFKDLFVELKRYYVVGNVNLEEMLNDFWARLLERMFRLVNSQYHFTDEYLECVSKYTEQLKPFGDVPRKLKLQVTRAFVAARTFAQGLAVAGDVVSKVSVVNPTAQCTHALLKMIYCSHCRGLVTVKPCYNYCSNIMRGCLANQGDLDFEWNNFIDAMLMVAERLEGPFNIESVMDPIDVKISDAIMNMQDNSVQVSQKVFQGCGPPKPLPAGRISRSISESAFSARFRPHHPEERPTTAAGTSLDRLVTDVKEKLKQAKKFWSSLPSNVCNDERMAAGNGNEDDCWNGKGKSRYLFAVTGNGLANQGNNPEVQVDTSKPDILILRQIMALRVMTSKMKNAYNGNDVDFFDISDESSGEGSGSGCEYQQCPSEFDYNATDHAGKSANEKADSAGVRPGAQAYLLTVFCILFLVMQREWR
UniProt Q9UBI6: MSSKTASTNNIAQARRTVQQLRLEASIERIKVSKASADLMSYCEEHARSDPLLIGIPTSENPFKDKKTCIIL
UniProt Q9BQQ3: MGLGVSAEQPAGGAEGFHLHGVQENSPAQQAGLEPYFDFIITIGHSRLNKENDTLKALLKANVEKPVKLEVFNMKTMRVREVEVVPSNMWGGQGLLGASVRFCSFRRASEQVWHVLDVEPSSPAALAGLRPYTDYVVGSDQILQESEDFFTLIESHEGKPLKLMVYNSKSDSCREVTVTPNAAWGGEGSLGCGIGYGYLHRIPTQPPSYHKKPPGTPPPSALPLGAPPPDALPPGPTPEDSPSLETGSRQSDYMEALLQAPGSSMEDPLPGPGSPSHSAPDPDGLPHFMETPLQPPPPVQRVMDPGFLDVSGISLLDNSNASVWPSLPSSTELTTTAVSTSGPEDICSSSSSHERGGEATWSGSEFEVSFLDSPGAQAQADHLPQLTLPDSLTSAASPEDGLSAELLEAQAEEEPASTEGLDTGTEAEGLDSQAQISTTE
UniProt A6NDN3: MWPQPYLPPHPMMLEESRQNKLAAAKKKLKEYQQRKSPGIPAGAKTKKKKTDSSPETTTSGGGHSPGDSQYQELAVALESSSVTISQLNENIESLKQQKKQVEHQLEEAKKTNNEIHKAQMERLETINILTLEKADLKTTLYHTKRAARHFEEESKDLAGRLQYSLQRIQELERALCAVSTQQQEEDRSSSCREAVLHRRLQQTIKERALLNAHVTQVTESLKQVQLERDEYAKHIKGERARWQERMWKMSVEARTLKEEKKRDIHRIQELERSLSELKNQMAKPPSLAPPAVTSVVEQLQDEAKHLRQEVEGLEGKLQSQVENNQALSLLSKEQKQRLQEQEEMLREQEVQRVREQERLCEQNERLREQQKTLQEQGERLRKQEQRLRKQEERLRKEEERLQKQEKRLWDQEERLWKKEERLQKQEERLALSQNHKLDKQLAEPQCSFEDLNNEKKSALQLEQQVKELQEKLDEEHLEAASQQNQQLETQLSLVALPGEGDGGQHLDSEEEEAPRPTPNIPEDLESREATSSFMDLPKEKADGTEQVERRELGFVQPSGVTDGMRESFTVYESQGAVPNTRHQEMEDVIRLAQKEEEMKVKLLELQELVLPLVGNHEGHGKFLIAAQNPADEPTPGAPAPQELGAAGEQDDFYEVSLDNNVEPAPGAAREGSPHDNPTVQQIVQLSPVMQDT
UniProt Q9UI32: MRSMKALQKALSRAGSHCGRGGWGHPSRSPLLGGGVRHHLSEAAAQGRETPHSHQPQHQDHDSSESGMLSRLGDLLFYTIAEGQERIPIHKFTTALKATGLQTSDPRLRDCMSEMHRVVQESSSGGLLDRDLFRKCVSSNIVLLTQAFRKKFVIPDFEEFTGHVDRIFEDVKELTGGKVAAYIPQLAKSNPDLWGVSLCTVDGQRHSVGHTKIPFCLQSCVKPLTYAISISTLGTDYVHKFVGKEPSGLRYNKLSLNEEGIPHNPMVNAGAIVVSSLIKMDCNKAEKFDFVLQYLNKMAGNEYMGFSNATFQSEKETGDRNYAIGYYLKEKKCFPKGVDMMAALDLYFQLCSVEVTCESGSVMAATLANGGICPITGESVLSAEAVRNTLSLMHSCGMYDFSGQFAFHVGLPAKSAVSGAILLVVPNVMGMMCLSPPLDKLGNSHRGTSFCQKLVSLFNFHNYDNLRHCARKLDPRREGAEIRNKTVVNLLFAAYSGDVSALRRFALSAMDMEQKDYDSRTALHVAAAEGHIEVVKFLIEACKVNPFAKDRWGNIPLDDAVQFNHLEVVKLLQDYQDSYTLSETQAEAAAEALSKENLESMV
UniProt Q14687: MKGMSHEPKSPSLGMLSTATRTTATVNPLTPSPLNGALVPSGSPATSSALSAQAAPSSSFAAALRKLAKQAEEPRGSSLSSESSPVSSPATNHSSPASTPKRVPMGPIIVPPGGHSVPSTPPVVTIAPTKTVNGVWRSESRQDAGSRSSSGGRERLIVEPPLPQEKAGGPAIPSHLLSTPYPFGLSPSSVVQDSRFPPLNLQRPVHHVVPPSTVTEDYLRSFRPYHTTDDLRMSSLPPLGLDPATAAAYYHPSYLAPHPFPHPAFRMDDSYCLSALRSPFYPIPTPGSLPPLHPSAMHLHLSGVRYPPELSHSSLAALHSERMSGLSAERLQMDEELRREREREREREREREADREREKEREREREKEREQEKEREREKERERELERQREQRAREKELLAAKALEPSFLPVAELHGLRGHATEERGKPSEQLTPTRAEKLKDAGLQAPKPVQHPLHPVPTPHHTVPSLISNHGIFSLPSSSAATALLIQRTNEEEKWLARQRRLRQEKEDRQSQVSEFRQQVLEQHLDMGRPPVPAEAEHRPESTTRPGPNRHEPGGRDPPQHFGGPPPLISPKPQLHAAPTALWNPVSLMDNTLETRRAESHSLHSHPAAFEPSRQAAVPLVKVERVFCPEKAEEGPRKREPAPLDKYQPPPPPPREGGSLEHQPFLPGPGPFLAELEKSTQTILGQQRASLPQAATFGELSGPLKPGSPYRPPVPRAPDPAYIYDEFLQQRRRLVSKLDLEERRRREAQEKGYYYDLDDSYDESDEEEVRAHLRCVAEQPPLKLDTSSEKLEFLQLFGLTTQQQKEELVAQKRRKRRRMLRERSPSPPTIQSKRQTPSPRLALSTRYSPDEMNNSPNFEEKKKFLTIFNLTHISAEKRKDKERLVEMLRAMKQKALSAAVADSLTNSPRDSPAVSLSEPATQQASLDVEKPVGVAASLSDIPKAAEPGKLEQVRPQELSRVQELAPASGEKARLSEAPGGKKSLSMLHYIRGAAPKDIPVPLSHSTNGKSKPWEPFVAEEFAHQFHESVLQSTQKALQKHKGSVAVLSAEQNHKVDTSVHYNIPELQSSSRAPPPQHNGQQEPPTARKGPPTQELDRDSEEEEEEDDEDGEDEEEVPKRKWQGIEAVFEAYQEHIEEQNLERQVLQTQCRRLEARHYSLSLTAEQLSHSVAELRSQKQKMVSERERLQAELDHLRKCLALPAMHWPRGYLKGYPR
UniProt Q5T7V8: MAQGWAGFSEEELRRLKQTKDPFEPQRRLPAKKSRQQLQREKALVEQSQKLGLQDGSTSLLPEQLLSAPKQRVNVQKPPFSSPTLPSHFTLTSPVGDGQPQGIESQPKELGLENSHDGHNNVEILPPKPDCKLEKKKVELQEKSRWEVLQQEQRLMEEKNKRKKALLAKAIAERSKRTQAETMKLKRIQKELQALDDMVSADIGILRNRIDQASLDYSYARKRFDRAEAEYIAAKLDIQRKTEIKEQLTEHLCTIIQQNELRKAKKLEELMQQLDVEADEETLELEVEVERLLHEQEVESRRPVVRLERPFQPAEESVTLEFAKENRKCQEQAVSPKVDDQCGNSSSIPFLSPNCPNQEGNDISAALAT
UniProt O94923: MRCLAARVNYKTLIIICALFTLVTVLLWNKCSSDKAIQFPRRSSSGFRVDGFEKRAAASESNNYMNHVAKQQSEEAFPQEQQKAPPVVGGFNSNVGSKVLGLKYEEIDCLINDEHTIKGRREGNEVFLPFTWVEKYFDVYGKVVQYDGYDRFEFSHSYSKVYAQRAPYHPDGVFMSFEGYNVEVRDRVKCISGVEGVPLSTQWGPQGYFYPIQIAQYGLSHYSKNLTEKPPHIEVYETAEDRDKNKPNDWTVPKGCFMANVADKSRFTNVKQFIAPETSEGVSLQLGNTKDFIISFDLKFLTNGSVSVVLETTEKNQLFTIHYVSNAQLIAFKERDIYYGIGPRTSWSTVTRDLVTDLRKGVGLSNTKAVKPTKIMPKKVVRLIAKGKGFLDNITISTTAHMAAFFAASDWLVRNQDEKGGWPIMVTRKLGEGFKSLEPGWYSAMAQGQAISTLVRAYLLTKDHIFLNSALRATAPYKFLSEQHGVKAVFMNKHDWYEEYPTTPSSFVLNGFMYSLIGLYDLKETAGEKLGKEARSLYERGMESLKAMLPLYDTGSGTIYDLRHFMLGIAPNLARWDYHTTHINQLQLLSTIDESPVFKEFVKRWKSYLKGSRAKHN

Tests used:
Test in all cases: log2 fold change, soluble protein after heating vs DMSO (PISA); higher = thermal stabilisation; K562 cells, 10 uM, 30 min; active = over 0.2 and 3.5 SD of the protein, either way, in both replicates (recomputed)
vorinostat = compound: O=C(CCCCCCC(=O)Nc1ccccc1)NO [vorinostat]
How it was run: (§1)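 K562 cells at 2×10^6 cells/mL were treated for 30 min with 10 μM compound, and aliquots were heated for 3 min over 48°C-58°C before pooling. Extraction used PBS with 0.5% NP-40 at 4°C, and soluble protein was the supernatant after 21,000xg for 90 min, measured by TMTpro 16plex LC-MS/MS with channel sums equalised. Thermal stability values, relative to control samples and from duplicates, are log2 fold changes.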

[1] = compound: NC(=O)Nc1cc(-c2cccc(F)c2)sc1C(=O)N[C@H]1CCCNC1
How it was run: as §1

[2] = compound: NC1(c2ccc(-c3nc4ccn5c(=O)[nH]nc5c4cc3-c3ccccc3)cc2)CCC1
How it was run: as §1

entinostat = compound: Nc1ccccc1NC(=O)c1ccc(CNC(=O)OCc2cccnc2)cc1 [entinostat]
How it was run: as §1

citarinostat = compound: O=C(CCCCCCNC(=O)c1cnc(N(c2ccccc2)c2ccccc2Cl)nc1)NO [citarinostat]
How it was run: as §1

silmitasertib = compound: O=C(O)c1ccc2c(c1)nc(Nc1cccc(Cl)c1)c1ccncc12 [silmitasertib]
How it was run: as §1

[3] = compound: O=C1NC(=O)C(c2cnc3ccccn23)=C1c1cn2c3c(cc(F)cc13)CN(C(=O)N1CCCCC1)CC2
How it was run: as §1

[4] = compound: c1cc(OCCN2CCCCC2)cc(-c2n[nH]c3ccc(-c4nnc[nH]4)cc23)c1
How it was run: as §1

entospletinib = compound: c1cn2cc(-c3ccc4cn[nH]c4c3)nc(Nc3ccc(N4CCOCC4)cc3)c2n1 [entospletinib]
How it was run: as §1

[5] = compound: NC(=O)c1cnc(N[C@@H]2CCCC[C@@H]2N)nc1Nc1cccc(-n2nccn2)c1
How it was run: as §1

[6] = compound: NCC(=O)Nc1ccc(-n2nc(C(F)(F)F)cc2-c2ccc3c(ccc4ccccc43)c2)cc1
How it was run: as §1

Measured: log2 fold change

GJA1 (UniProt P17302)
inactive: vorinostat -0.015

GINM1 (UniProt Q9NU53)
inactive: [1] -0.088 | [2] -0.211 | entinostat 0.279 | vorinostat 0.076 | citarinostat 0.009 | silmitasertib 0.055 | [3] 0.209 | [4] 0.106 | entospletinib -0.037

GMIP (UniProt Q9P107)
inactive: [1] 0.017 | entinostat 0.185 | [3] 0.053

GOLGA1 (UniProt Q92805)
inactive: [5] -0.057 | [6] -0.1 | vorinostat -0.042

GK5 (UniProt Q6ZS86)
inactive: [5] 0.054 | [6] -0.02 | vorinostat -0.158 | [3] -0.004

GNPTG (UniProt Q9UJJ9)
inactive: [5] -0.054 | [2] -0.02 | vorinostat -0.013 | silmitasertib -0.021 | [3] 0.11

GPCPD1 (UniProt Q9NPB8)
inactive: [1] 0.181 | [2] -0.162 | entinostat 0.042 | vorinostat 0.239 | citarinostat 0.047 | silmitasertib 0.039 | [3] -0.176 | [4] -0.009 | entospletinib 0.093

GOLGA8R (UniProt I6L899)
inactive: [5] -0.1 | [6] 0.02 | vorinostat 0.073 | citarinostat 0.09 | [4] 0.006

GIGYF1 (UniProt O75420)
inactive: [1] -0.152 | entinostat 0.072 | vorinostat 0.088 | [3] -0.032

GOLM1 (UniProt Q8NBJ4)
inactive: [1] 0.08 | [2] -0.001 | [6] 0.054 | entinostat -0.016 | citarinostat -0.207 | silmitasertib 0.156 | [4] 0.053 | entospletinib 0.052

GNL2 (UniProt Q13823)
inactive: [2] -0.293 | vorinostat -0.002 | citarinostat -0.147 | silmitasertib -0.101 | [3] 0.08 | [4] -0.279 | entospletinib 0.378

GRAMD1A (UniProt Q96CP6)
inactive: [3] 0.083

GP6 isoform 3 (UniProt Q9HCN6)
inactive: [2] -0.232 | silmitasertib 0.238

GSDME (UniProt O60443)
inactive: citarinostat 0.036 | [3] -0.209 | [4] -0.089 | entospletinib 0.153

GPATCH1 (UniProt Q9BRR8)
inactive: [1] 0.195 | [6] -0.193 | entinostat 0.153 | citarinostat 0.073 | [3] 0.083 | [4] -0.017 | entospletinib -0.102

GPAA1 (UniProt E9PLG8)
inactive: [5] -0.016 | [2] -0.229 | vorinostat -0.125 | citarinostat 0.119 | silmitasertib 0.061 | [4] -0.084 | entospletinib 0.043

GRK6 isoform 2 (UniProt P43250)
inactive: [6] -0.077

GPC4 (UniProt O75487)
inactive: vorinostat 0.307

GNG12 (UniProt Q9UBI6)
inactive: vorinostat -0.029

GPNMB (UniProt Q14956)
inactive: citarinostat -0.125 | [3] -0.015 | [4] 0.727

GORASP1 (UniProt Q9BQQ3)
inactive: citarinostat -0.093 | [3] 0.16 | [4] -0.096 | entospletinib 0.153

Taken from above (twelve entries):
GPCPD1 (UniProt Q9NPB8)
inactive: [1] 0.181 | [2] -0.162 | entinostat 0.042 | vorinostat 0.239 | citarinostat 0.047 | silmitasertib 0.039 | [3] -0.176 | [4] -0.009 | entospletinib 0.093

GOLGA8R (UniProt I6L899)
inactive: [5] -0.1 | [6] 0.02 | vorinostat 0.073 | citarinostat 0.09 | [4] 0.006

GIGYF1 (UniProt O75420)
inactive: [1] -0.152 | entinostat 0.072 | vorinostat 0.088 | [3] -0.032

GOLM1 (UniProt Q8NBJ4)
inactive: [1] 0.08 | [2] -0.001 | [6] 0.054 | entinostat -0.016 | citarinostat -0.207 | silmitasertib 0.156 | [4] 0.053 | entospletinib 0.052

GNL2 (UniProt Q13823)
inactive: [2] -0.293 | vorinostat -0.002 | citarinostat -0.147 | silmitasertib -0.101 | [3] 0.08 | [4] -0.279 | entospletinib 0.378

GRAMD1A (UniProt Q96CP6)
inactive: [3] 0.083

GP6 isoform 3 (UniProt Q9HCN6)
inactive: [2] -0.232 | silmitasertib 0.238

GSDME (UniProt O60443)
inactive: citarinostat 0.036 | [3] -0.209 | [4] -0.089 | entospletinib 0.153

GPATCH1 (UniProt Q9BRR8)
inactive: [1] 0.195 | [6] -0.193 | entinostat 0.153 | citarinostat 0.073 | [3] 0.083 | [4] -0.017 | entospletinib -0.102

GPAA1 (UniProt E9PLG8)
inactive: [5] -0.016 | [2] -0.229 | vorinostat -0.125 | citarinostat 0.119 | silmitasertib 0.061 | [4] -0.084 | entospletinib 0.043

GRK6 isoform 2 (UniProt P43250)
inactive: [6] -0.077

GPC4 (UniProt O75487)
inactive: vorinostat 0.307

Continuation:

GLE1 (UniProt Q53GS7)
inactive: [5] 0.059

GPX3 (UniProt P22352)
inactive: [5] 0.073 | [6] -0.043 | citarinostat 0.009 | [3] 0.037 | [4] 0.114 | entospletinib -0.157

GPAM (UniProt Q9HCL2)
inactive: [1] 0 | [5] 0.135 | entinostat 0.028 | vorinostat 0.039 | [3] -0.144

GLT8D1 (UniProt Q68CQ7)
inactive: [5] 0.01 | vorinostat -0.267 | citarinostat -0.142 | [4] 0.084 | entospletinib -0.279

GOLGA6B (UniProt A6NDN3)
inactive: [1] 0.048 | [2] -0.054 | [6] 0.001 | entinostat 0.007 | vorinostat 0.114 | silmitasertib 0.022 | [3] 0.051

GPS1 (UniProt A8K070)
inactive: [2] -0.002 | vorinostat 0.002 | citarinostat 0.004 | silmitasertib 0.023 | [4] 0.056 | entospletinib 0.007

GLS2 (UniProt Q9UI32)
inactive: [5] 0.005

GOSR1 (UniProt E9PCW1)
inactive: [2] -0.117 | citarinostat 0.077 | silmitasertib -0.101 | [4] -0.143 | entospletinib -0.008

GPT2 (UniProt Q8TD30)
inactive: [5] 0.005 | [2] 0.445 | [6] -0.06 | vorinostat 0.116 | silmitasertib -0.085

GNL3L (UniProt Q9NVN8)
inactive: vorinostat 0.157

GPATCH4 isoform 3 (UniProt Q5T3I0)
inactive: [6] 0.499 | vorinostat -0.035 | citarinostat 0.032 | [3] 0.142 | [4] -0.363 | entospletinib 0.116

GSE1 (UniProt Q14687)
inactive: [6] -0.044

GORAB (UniProt Q5T7V8)
inactive: [1] 0 | [6] -0.026 | entinostat 0.114 | citarinostat -0.141 | [4] 0.165 | entospletinib 0.014

GLCE (UniProt O94923)
inactive: [1] 0.031 | entinostat -0.046

GOLIM4 (UniProt F8W785)
inactive: [1] -0.077 | [6] 0.024 | entinostat 0.013 | vorinostat -0.119 | citarinostat -0.01 | [3] -0.051 | [4] -0.01 | entospletinib 0.035

GINS2 (UniProt Q9Y248)
inactive: [1] -0.086 | [2] -0.024 | [6] 0.022 | vorinostat -0.01 | citarinostat 0.028 | silmitasertib -0.031 | [3] -0.163 | [4] -0.026
active: entinostat 0.533

GIT2 (UniProt Q14161)
inactive: [5] 0 | [2] -0.06 | silmitasertib -0.018 | [3] 0.15
